# Experimental data: PubChem BioAssay AID652243 (Drosophila RNAi Screening Center, 2013)
# Aim: 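Knock-downs that decrease or increase androgen receptor reporter signal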 (primary screen)
# Cell system: Drosophila S2R+ cells
# Reagents: long dsRNA against Drosophila genes
# Time to read-out: 72 h (48 h, then 24 h hormone)
# Challenge: synthetic androgen R1881 at 10 nM for 24 h
# Measurement: 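Firefly light from an androgen-responsive reporter and Renilla control light per well, raw and unnormalised, for each of two replicates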
# Direction: firefly reporter light: higher = more light from androgen-responsive reporter; Renilla control light: higher = more constitutive control signal (cell number, transfection)
# Call rule: 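Hit when the log firefly-to-Renilla ratio dropped or increased by a fixed fold versus the mean of GFP or LacZ controls across duplicate plates; lowering cut given as 1.5 and as 3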
# Meaning of the calls: active = hit: reporter lowered or raised; inactive = no hit
# The deposit covers about 24,000 reagents; shown is a random part of those with a known target gene and a result. Over the whole deposit, 246 (1%) are marked active. 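Plates not normalised; calls are printed but the firefly/Renilla ratio behind them is not deposited; fold cut for lowering reported inconsistently.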 Raw values vary from plate to plate and are shown uncorrected. Not stated in the record: the amount of reagent.
target,amplicon,"firefly reporter light, replicate 1","firefly reporter light, replicate 2","Renilla control light, replicate 1","Renilla control light, replicate 2",Call
Eig71Ee (Ecdysone-induced gene 71Ee),DRSC11152,2.45e5,2.53e5,2.44e6,2.68e6,inactive
RpL29 (Ribosomal protein L29),DRSC04650,2.85e5,2.54e5,1.81e6,1.66e6,inactive
CG18417,DRSC10319,1.61e5,1.62e5,2.15e6,2.03e6,inactive
CG18417,DRSC23997,7.70e5,6.65e5,8.01e5,6.56e5,inactive
CG9855,DRSC12344,4.00e5,5.05e5,1.65e6,2.23e6,active
CG9855,DRSC25547,1.47e6,1.54e6,1.10e6,8.81e5,inactive
CG9855,DRSC39062,9.19e5,7.22e5,1.98e6,1.27e6,inactive
Rcc1 (Regulator of chromosome condensation 1),DRSC09684,9.21e5,1.03e6,1.22e6,1.66e6,inactive
Rcc1 (Regulator of chromosome condensation 1),DRSC28981,3.64e5,3.97e5,9.96e5,9.57e5,inactive
CG10344,DRSC04066,2.62e5,2.48e5,1.97e6,1.64e6,inactive
CG10344,DRSC24394,1.02e6,8.58e5,8.49e5,7.59e5,inactive
retinin,DRSC09940,2.12e5,1.56e5,1.97e6,1.70e6,inactive
retinin,DRSC25734,4.94e5,2.17e5,1.33e6,2.86e5,inactive
CG30288,DRSC22005,6.59e5,5.27e5,2.05e6,1.68e6,inactive
CG30288,DRSC29991,5.00e5,3.30e5,1.21e6,8.80e5,inactive
CG42296,DRSC00394,1.01e5,82626,4.78e5,6.96e5,inactive
Phf5a (PHD finger protein 5a),DRSC03261,2.03e5,2.68e5,2.02e6,2.17e6,inactive
Scgdelta (Sarcoglycan delta),DRSC18544,4.36e5,3.50e5,4.06e6,3.50e6,inactive
CG32107,DRSC09221,2.42e5,99599,5.71e5,2.99e5,inactive
CG10479,DRSC23395,8.65e5,7.83e5,7.43e5,1.01e6,inactive
eIF5B (eukaryotic translation initiation factor 5B),DRSC08429,77284,85388,7.92e5,9.57e5,inactive
eIF5B (eukaryotic translation initiation factor 5B),DRSC08710,1.46e5,99120,1.16e6,1.10e6,inactive
eIF5B (eukaryotic translation initiation factor 5B),DRSC25022,7.68e5,4.29e5,7.36e5,4.65e5,inactive
CG4701,DRSC01952,1.09e5,1.15e5,1.36e6,1.27e6,inactive
CG15814,DRSC19730,1.26e5,95969,9.22e5,8.60e5,inactive
Acsx1L (Acyl-CoA synthetase X1 L),DRSC16014,2.09e5,1.29e5,2.66e6,1.69e6,inactive
Acsx1L (Acyl-CoA synthetase X1 L),DRSC25334,9.20e5,1.40e6,6.27e5,1.16e6,inactive
iav (inactive),DRSC18363,30648,35310,1.53e6,1.10e6,inactive
iav (inactive),DRSC25119,7.50e5,6.21e5,1.09e6,9.81e5,inactive
CG8252,DRSC07126,6.57e5,7.60e5,1.06e6,8.68e5,inactive
CG8252,DRSC29694,5.64e5,5.48e5,1.34e6,1.41e6,inactive
CG12857,DRSC06197,43621,1.16e5,6.74e5,6.74e5,inactive
mrn (marionette),DRSC10913,31293,36534,4.76e5,3.56e5,inactive
Dad,DRSC16642,79504,60382,4.88e5,6.09e5,inactive
Dad,DRSC28345,2.42e5,5.18e5,7.93e5,1.19e6,inactive
CG15308,DRSC17995,3.81e5,3.51e5,3.03e6,2.05e6,inactive
Hil (Hillarin),DRSC05989,5.95e5,6.20e5,1.47e6,1.74e6,inactive
Hil (Hillarin),DRSC06395,1.11e5,1.67e5,1.91e6,2.05e6,inactive
CG6418,DRSC10633,1.17e6,7.54e5,1.70e6,1.22e6,inactive
CG6418,DRSC27621,2.43e5,2.03e5,6.99e5,9.00e5,inactive
CG8369,DRSC16413,91086,94287,1.27e6,1.26e6,inactive
ast (asteroid),DRSC00803,4.70e5,4.57e5,2.10e6,1.67e6,inactive
ast (asteroid),DRSC27973,5.62e5,3.34e5,2.27e6,1.49e6,inactive
Kots (Kotsubu),DRSC16581,40777,48950,3.10e5,4.43e5,inactive
CG17219,DRSC00486,1.21e5,1.03e5,1.04e6,8.90e5,inactive
ova (ovaries absent),DRSC02879,6.48e5,8.14e5,1.61e6,1.86e6,inactive
Hnf4 (Hepatocyte nuclear factor 4),DRSC03344,1.21e6,1.02e6,4.40e6,4.34e6,inactive
Hnf4 (Hepatocyte nuclear factor 4),DRSC26864,3.24e5,3.05e5,4.41e5,5.75e5,inactive
CG12519,DRSC29810,5.12e5,4.55e5,1.67e6,1.86e6,inactive
Reph (Regulator of eph expression),DRSC00634,8.54e5,7.86e5,3.69e6,2.84e6,inactive
Reph (Regulator of eph expression),DRSC22031,9.72e5,1.08e6,2.59e6,2.35e6,inactive
Reph (Regulator of eph expression),DRSC29417,5.36e5,5.84e5,1.23e6,1.23e6,inactive
Pcp (Pupal cuticle protein),DRSC03395,1.81e5,2.06e5,2.05e6,1.64e6,inactive
Ate1 (Arginyltransferase 1),DRSC05925,9.12e5,6.56e5,1.41e6,6.85e5,inactive
Ate1 (Arginyltransferase 1),DRSC24725,7.81e5,6.80e5,9.61e5,7.12e5,inactive
Sardh (Sarcosine dehydrogenase),DRSC06981,5.71e5,3.18e5,6.09e5,3.90e5,inactive
CG13876,DRSC08346,54802,74821,1.30e6,1.28e6,inactive
RpL35 (Ribosomal protein L35),DRSC18347,1.12e5,1.74e5,1.34e6,1.70e6,inactive
kuz (kuzbanian),DRSC03555,1.61e5,1.55e5,1.46e6,1.66e6,inactive
d-cup (davis-cup),DRSC14846,1.67e5,1.10e5,1.66e6,1.59e6,inactive
CG31548,DRSC22640,1.03e6,1.08e6,1.39e6,1.01e6,inactive
CG31548,DRSC25763,5.35e5,5.53e5,4.98e5,5.42e5,inactive
CG4286,DRSC04459,1.94e5,3.88e5,5.85e5,6.68e5,inactive
CG4286,DRSC24458,8.06e5,6.88e5,1.01e6,9.01e5,inactive
mle (maleless),DRSC04921,2.84e5,2.68e5,1.11e6,1.23e6,inactive
crq (croquemort),DRSC00810,1.17e5,1.02e5,6.56e5,7.84e5,inactive
CG18605,DRSC06772,1.21e5,1.65e5,1.85e6,1.83e6,inactive
CG18605,DRSC26583,2.58e5,2.16e5,6.14e5,6.43e5,inactive
CG11608,DRSC14334,38751,41691,7.32e5,8.19e5,inactive
"Arpc3B (Actin-related protein 2/3 complex, subunit 3B)",DRSC20126,4.42e5,3.56e5,2.90e6,1.60e6,inactive
"Arpc3B (Actin-related protein 2/3 complex, subunit 3B)",DRSC28523,1.78e5,4.62e5,5.65e5,1.26e6,inactive
RnrL (Ribonucleoside diphosphate reductase large subunit),DRSC03413,5.20e5,7.89e5,1.46e6,2.13e6,inactive
Irp-1B (Iron regulatory protein 1B),DRSC16720,1.63e5,1.98e5,2.26e6,1.86e6,inactive
Irp-1B (Iron regulatory protein 1B),DRSC24261,5.84e5,4.02e5,5.69e5,5.30e5,inactive

4 neighbouring records already listed, for reference:
target,amplicon,"firefly reporter light, replicate 1","firefly reporter light, replicate 2","Renilla control light, replicate 1","Renilla control light, replicate 2",Call
CG18417,DRSC10319,1.61e5,1.62e5,2.15e6,2.03e6,inactive
CG18417,DRSC23997,7.70e5,6.65e5,8.01e5,6.56e5,inactive
CG9855,DRSC12344,4.00e5,5.05e5,1.65e6,2.23e6,active
CG9855,DRSC25547,1.47e6,1.54e6,1.10e6,8.81e5,inactive
